In PMC12447578, “Syndecan-4 interacts directly with β-parvin and regulates the ILK-PINCH-β-parvin complex, the β-parvin-β-PIX-Rac1 axis, and cardiomyocyte geometry in a sex-dependent manner” (Frontiers in Cell and Developmental Biology, 2025):
Results are given in words; binding and its absence hold for the method and conditions named. Binding seen in cells or lysates may run through a third protein. For some assays here: Binding calls can cover weak binding; strength is not graded here.

Tests used:
[1] = molecular target: T1, SDC4 FL (aa 1–198) (mouse) (UniProt O35988); experiment: co-IP; lysates of HEK293 cells co-transfected with FL rat β-parvin and mouse SDC4 FL or SDC4Δcyt; IP of syndecan-4, protein A/G agarose beads O/N at 4°C; immunoblot
T1 sequence: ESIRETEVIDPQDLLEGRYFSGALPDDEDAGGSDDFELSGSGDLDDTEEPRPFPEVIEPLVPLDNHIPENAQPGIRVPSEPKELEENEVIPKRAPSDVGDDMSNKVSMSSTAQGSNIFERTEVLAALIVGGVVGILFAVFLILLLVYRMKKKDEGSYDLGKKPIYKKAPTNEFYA

[2] = molecular target: T2, SDC4 Δcyt (aa 171–198 deleted) (mouse) (UniProt O35988); experiment: as above
T2 sequence: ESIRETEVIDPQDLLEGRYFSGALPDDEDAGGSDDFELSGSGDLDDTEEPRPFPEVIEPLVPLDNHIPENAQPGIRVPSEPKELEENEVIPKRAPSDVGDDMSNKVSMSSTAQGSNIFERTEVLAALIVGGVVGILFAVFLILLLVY

binding [1]: binds
binding [2]: no binding
Substance: 3xFLAG-β-parvin FL (amino acids 1–365) (rat)
